Out of some 220,000 compounds screened, about 770 (0.35%) were called active. This list was built around the results that the source calls inconclusive (neither active nor inactive); the mix of calls is not that of the screen. No stated cut-off is given here; in the data, active means binding response below about 49% or above about 150%; inconclusive means no clear call, values can overlap the other calls; inactive means in between.
Molecular target: Guanine nucleotide-binding protein G(o) subunit alpha (Homo sapiens) (UniProt P09471)
Assay: RGS7-Galphao binding modulators, primary screen, biochemical, multiplexed bead flow cytometry (AID 1439);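 further: fluorescent Galphao held in activated GDP-AlF4 state binding bead-coupled RGS7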
Settings: at 10 µM, actives lie on both sides

Protein sequences, listed by entry. Tags and fused reporters are not part of them.
UniProt P09471, whole entry, looked up: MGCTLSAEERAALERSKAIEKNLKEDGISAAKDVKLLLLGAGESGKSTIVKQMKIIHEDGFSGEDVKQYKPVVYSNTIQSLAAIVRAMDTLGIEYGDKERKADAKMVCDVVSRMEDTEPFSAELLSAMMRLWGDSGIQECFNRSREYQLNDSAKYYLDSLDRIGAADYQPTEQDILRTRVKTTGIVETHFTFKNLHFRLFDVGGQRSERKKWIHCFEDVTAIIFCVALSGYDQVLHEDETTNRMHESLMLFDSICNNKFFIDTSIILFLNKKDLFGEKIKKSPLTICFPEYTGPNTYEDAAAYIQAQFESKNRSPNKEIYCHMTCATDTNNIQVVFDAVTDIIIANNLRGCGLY

SMILES | binding response (% of control)
COc1ccc(/C=N\Nc2ccc([N+](=O)[O-])cc2)c(C(=O)O)c1OC | inconclusive: 143%
O=C(C1CC(=O)N(c2ccc3c(c2)OCCO3)C1)N1CCN(c2ccccc2)CC1 (configuration not stated) | inconclusive: 77.6%
COc1cccc(/C=C/C(=O)c2cccc([N+](=O)[O-])c2)c1OC | inconclusive: 78.2%
CCOc1ccccc1OCCCC(=O)Nc1sccc1C(N)=O | inactive: 91.4%
O=C(O)CC1(CC(=O)NCc2cc(F)cc3c2OCOC3)CCCCC1 | inconclusive: 9.65%
CSc1ncccc1C(=O)OCC(=O)c1cc(C)n(CC2CCCO2)c1C (configuration not stated) | inconclusive: 166%
O=C(CC12CC3CC(CC(C3)C1)C2)NC(=S)Nc1ccc(CN2CCOCC2)cc1 | inconclusive: 109%
COc1cc(C(=O)N2CCc3ccccc32)ccc1OCc1c(C)noc1C | inconclusive: 122%
O=c1[nH]c(CN2CCN(Cc3ccccc3)CC2)nc2scc(-c3ccccc3)c12 | inconclusive: 108%
CC1=C(C)C(C)=C(C#N)C(=C(C#N)C#N)N1 | inconclusive: 43.7%
CCC(=O)c1c[nH]c(C(=O)N2CCN(c3ccccc3)CC2)c1 | inconclusive: 117%
O=C(NC(=S)Nc1nc2ccccc2s1)c1cccs1 | inactive: 105%
COc1ccc(/C(C)=N/NC(=O)C(NC(=O)c2ccccc2)c2n[nH]c(=O)c3ccccc23)c(OC)c1 (configuration not stated) | inconclusive: 177%
COC(=O)CCN1CCc2cc(N=Nc3ccc([N+](=O)[O-])cc3)ccc21 | inconclusive: 91.3%
C/C(=N\NC(=O)C(=O)Nc1cc(C)ccc1C)c1ccncc1 | inconclusive: 356%
O=C(O)c1cc2nc3c(c(C(F)(F)F)n2n1)CCc1ccccc1-3 | active: 1.35%
CN1CCN(c2ccc(CNS(=O)(=O)c3ccsc3)cc2)CC1 | inconclusive: 117%
O=C(COC(=O)CCc1nc2ccccc2c(=O)[nH]1)Nc1ccccc1Cl | inconclusive: 85.4%
CC12CCC(C(=O)NCc3ccc(F)cc3)(OC1=O)C2(C)C (configuration not stated) | inconclusive: 97.2%

SMILES | binding response (% of control)
O=C(Nc1nnc(-c2ccncc2)o1)c1cccc(N2C(=O)CCC2=O)c1 | inconclusive: 91.6%
Cc1cc(/C(N)=N/OC(=O)Nc2cccc(C(F)(F)F)c2)no1 | inconclusive: 113%
CN1CCN(S(=O)(=O)c2cccc(C(=O)Nc3nccs3)c2)CC1 | inconclusive: 89.9%
CC(O)CNC(=O)Cc1cc(=O)[nH]c(=O)[nH]1 (configuration not stated) | inconclusive: 102%
COC(=O)[C@H](CCSC)NC(=O)Nc1cccc(C)c1C | inconclusive: 110%
Cc1onc(-c2ccccc2Cl)c1C(=O)NCc1ccc2c(c1)cc(C)n2C | inconclusive: 109%
CCCC(=O)OCC(=O)NCc1ccc(Cl)cc1 | inconclusive: 103%
O=C(O)C1CC=CCC1C(=O)Nc1cccc(Cl)c1 (configuration not stated) | inactive: 102%
NS(=O)(=O)c1cccc(NC(=O)COC(=O)Cn2cnc3ccccc32)c1 | inconclusive: 111%
CCOC(=O)c1ccc(Oc2nc(OC)cc(OC)n2)cc1 | inconclusive: 110%
Cc1ccc(/C=C2/SC(=O)NC2=S)o1 | inactive: 99.8%
O=C(Nc1ccccc1)Oc1ccccc1N1CCOCC1 | inconclusive: -17.4%
Nc1nc(O)c(CC(=O)O)s1 | inconclusive: 125%
O=C(NCC1CCCO1)c1cc(-c2ccccc2)nc2ccccc12 (configuration not stated) | inconclusive: 102%
O=c1ccnc(Nc2ccc3c(c2)OCCO3)[nH]1 | inactive: 103%
Cc1c(C(=O)N2CC3(CC(c4cccc(NC(=O)[C@H]5CCC(=O)N5)c4)=NO3)C[C@@H]2C(N)=O)cc([N+](=O)[O-])cc1[N+](=O)[O-] (some centres not stated) | inconclusive: 115%
CCCCN1CCNC1=S | inconclusive: -1.83%
O=C1NC(CCc2ccccc2)C(=O)N1Cc1cccc2ccccc12 (configuration not stated) | inactive: 103%
CC(OC(=O)C1CC1)C(=O)Nc1cc(C(F)(F)F)ccc1Cl (configuration not stated) | inactive: 96.6%

At a glance, part of the list above.
SMILES | binding response (% of control)
CCOC(=O)c1ccc(Oc2nc(OC)cc(OC)n2)cc1 | inconclusive: 110%
Cc1ccc(/C=C2/SC(=O)NC2=S)o1 | inactive: 99.8%
O=C(Nc1ccccc1)Oc1ccccc1N1CCOCC1 | inconclusive: -17.4%

More entries.

SMILES | binding response (% of control)
O=C(CN1CCN(Cc2ccccc2F)C1=O)NCC1CCCO1 (configuration not stated) | inconclusive: 89.2%
CC(C(=O)N1CCOCC1)N1C(=O)C2C3C=CC(C4CC34)C2C1=O (configuration not stated) | inconclusive: 114%
O=C(Nc1ccc(F)cc1)N(Cc1ccco1)Cc1cc2cc3c(cc2[nH]c1=O)OCO3 | inactive: 96.3%
CC(C)(C)NC(=O)c1ccc(C(=O)NC(C)(C)C)cc1 | inconclusive: 116%
COc1ccc(Cc2c3cc(OC)c(OC)cc3cc[n+]2C)cc1OC | inconclusive: 81.1%
O=c1cc(CSc2ccc(Cl)cc2)[nH]c2[nH]n(-c3ccccc3)c(=O)c12 | inconclusive: 82.9%
NS(=O)(=O)c1cccc(NC(=O)CSc2ncnc3ccccc23)c1 | inconclusive: 99%
COc1ccc(NS(=O)(=O)c2ccc(Oc3c(C#N)cccc3C#N)cc2)cc1 | inconclusive: 94.9%
Cc1nn(C)c(C)c1S(=O)(=O)N(CC(=O)N1CCc2ccccc2C1)c1ccc(C(C)C)cc1 | inactive: 96.8%
O=C(CNCc1cccs1)Nc1cc(S(=O)(=O)N2CCCC2)ccc1Cl | inconclusive: 99.9%
Cc1nc(C(=O)NC2CCOCC2)sc1C1(C)CC(c2ccccc2)=NO1 (configuration not stated) | inconclusive: 66.4%
CCOC(=O)c1[nH]c2cc(OC)c(OC)cc2c1NC(=O)CCN1CCSCC1 | inconclusive: -461%
COc1ccc(/C=C/C(=O)NCC(=O)N/N=C(\C)Cc2ccccc2)cc1 | inconclusive: 288%
O=C1OC(/C(=C\Nc2ccccc2)[N+](=O)[O-])c2ccccc21 (configuration not stated) | inconclusive: 95.5%
O=C(COC(=O)/C=C/c1ccc(F)cc1)Nc1ccc(Cl)cn1 | inconclusive: 80.7%
COc1ccc(-c2coc3cc(O)cc(O)c3c2=O)cc1OC | inconclusive: 85.8%
CC1=CC(c2ccc(Cl)cc2)n2nc(NC(=O)CCC(=O)O)nc2N1 (configuration not stated) | inconclusive: 108%
COc1ccc2[nH]c(=O)c(CN(C)C(=O)c3cccs3)cc2c1 | inconclusive: 541%
CC(C)C1OC(c2cccc(NC(=O)c3cccs3)c2)OCC1(C)C (configuration not stated) | inactive: 105%

Source: PubChem BioAssay AID1439 (NMMLSC, 2008)
